PubChem BioAssay AID504793 – Drosophila RNAi Screening Center – 2011
Aim: 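Whole-genome screen for parts of the DNA damage checkpoint at G2/M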 (primary screen). Cell system: Drosophila S2R+ cells. Knock-down reagent: long dsRNA against Drosophila genes, about 0.25 µg dsRNA per well. Timing: 4 days of dsRNA, then 4 hours of drug before read-out. Challenge: doxorubicin 0.5 µM for 4 hours to cause double-strand breaks, in cells also given a low, harmless dose of dsRNA against nbs to sensitise the assay. Measurement: 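Mitotic index as the number of phospho-histone H3-positive cells in each well following doxorubicin, given as raw counts without normalisation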. Scale: mitotic cells: higher = more cells in mitosis, weaker G2 arrest. Active means: 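a call needs confirmation in secondary tests, with other dsRNAs and a check of mitotic timing without damage, not just a high primary count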. Calls: active = confirmed in follow-up tests; inactive = not confirmed.
The deposit covers about 23,000 reagents; below is an unselected part of those with a known target gene and a result. In the full data, 62 (0.27%) got an active call. 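Calls come from follow-up tests whose scores are not deposited, so confirmed genes may have low counts here; counts are not normalised per plate.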 The raw values are shown without normalisation. Names joined by + are all predicted targets of the reagent.

gene,DRSC id,"mitotic cells, replicate 1","mitotic cells, replicate 2",outcome
Chd1 (Chromodomain-helicase-DNA-binding protein 1),DRSC00745,5,,inactive
miple2 (midkine and pleiotrophin 2),DRSC08723,,,inactive
CG42541,DRSC17973,13,,inactive
CG42541,DRSC18120,7,,inactive
CG42541,DRSC25318,8,,inactive
CG42541,DRSC25441,1,,inactive
beat-VI (beaten path VI),DRSC14474,10,,inactive
beat-VI (beaten path VI),DRSC14727,12,,inactive
CG4483,DRSC10426,8,,inactive
CG43367 + CG32252 (retired record),DRSC21715,9,,inactive
spn-F,DRSC14475,9,,inactive
spn-F,DRSC29328,3,,inactive
ITP (Ion transport peptide),DRSC04222,4,,inactive
CG31810 + CG31809,DRSC25411,7,,inactive
Rnp4F (RNA-binding protein 4F),DRSC18706,9,,inactive
Rnp4F (RNA-binding protein 4F),DRSC26480,5,,inactive
Mpv17 (Mitochondrial inner membrane protein MPV17),DRSC17198,9,,inactive
CG1503,DRSC20512,4,,inactive
Sas10 (Something about silencing 10),DRSC18355,4,,inactive
Oda (Ornithine decarboxylase antizyme),DRSC07626,5,,inactive
Oda (Ornithine decarboxylase antizyme),DRSC28076,6,,inactive
Tsp29Fb (Tetraspanin 29Fb),DRSC03233,4,,inactive
Tsp29Fb (Tetraspanin 29Fb),DRSC26296,4,,inactive
MFS3 (Major Facilitator Superfamily Transporter 3),DRSC00664,5,,inactive
MFS3 (Major Facilitator Superfamily Transporter 3),DRSC28601,9,,inactive
ClpP (Caseinolytic protease proteolytic subunit),DRSC02806,8,,inactive
CG11626,DRSC14336,12,,inactive
LKRSDH (Lysine ketoglutarate reductase/saccharopine dehydrogenase),DRSC03015,5,,inactive
LKRSDH (Lysine ketoglutarate reductase/saccharopine dehydrogenase),DRSC24572,4,,inactive
CG7997,DRSC07052,5,,inactive
CG7997,DRSC25706,4,,inactive
Surf6 (Surfeit 6),DRSC15588,7,,inactive
Surf6 (Surfeit 6),DRSC29437,6,,inactive
bib (big brain),DRSC03496,5,,inactive
bib (big brain),DRSC24888,7,,inactive
"SmydA-7 (SET and MYND domain containing, arthropod-specific, member 7)",DRSC07340,8,,inactive
Arp6 (Actin-related protein 6),DRSC19326,2,,inactive
Reepl1 (Receptor accessory protein like 1),DRSC19418,4,,inactive
Reepl1 (Receptor accessory protein like 1),DRSC26698,8,,inactive
Rab4 + CG42239,DRSC05667,8,,inactive
CG33262,DRSC22893,11,,inactive
Arl6IP1 (ADP-ribosylation factor-like 6 interacting protein 1),DRSC14231,1,,inactive
obst-B (obstructor-B),DRSC01987,10,,inactive
Syt7 (Synaptotagmin 7),DRSC17130,16,,inactive
Syt7 (Synaptotagmin 7),DRSC17159,5,,inactive
Ada (Adenosine deaminase),DRSC14463,5,,inactive
Ubc10 (Ubiquitin conjugating enzyme 10),DRSC07568,8,,inactive
Ubc10 (Ubiquitin conjugating enzyme 10),DRSC23795,4,,inactive
Hmgs (HMG Coenzyme A synthase),DRSC06866,5,,inactive
Hmgs (HMG Coenzyme A synthase),DRSC28746,8,,inactive
CG12885,DRSC14572,14,,inactive
CG12885,DRSC25241,4,,inactive
CG10298,DRSC12522,3,,inactive
CG10298,DRSC25489,12,,inactive
CG7924,DRSC10931,6,,inactive
CG7924,DRSC25661,9,,inactive
Oseg6 (Outer segment 6),DRSC06066,11,,inactive
CG13720,DRSC08329,7,,inactive
CG13720,DRSC23787,7,,inactive
CG7378,DRSC20041,10,,inactive
CG18302,DRSC02663,8,,inactive
CG18302,DRSC29318,7,,inactive
CG31686 (retired record),DRSC00102,6,,inactive
CG31686 (retired record),DRSC29852,3,,inactive
CG15412,DRSC00427,6,,inactive
CG6283,DRSC16009,11,,inactive
CG6283,DRSC29913,10,,inactive
CG32066,DRSC10652,1,,inactive
CG32066,DRSC10653,2,,inactive
Ssl2 (Strictosidine synthase-like 2),DRSC14395,8,,inactive
Ssl2 (Strictosidine synthase-like 2),DRSC22796,11,,inactive
CG42369,DRSC03244,,,inactive
CG11929,DRSC00339,8,,inactive
HLH4C (Helix loop helix protein 4C),DRSC18670,4,,inactive
HLH4C (Helix loop helix protein 4C),DRSC21322,7,,inactive
HLH4C (Helix loop helix protein 4C),DRSC25228,2,,inactive
CG8142,DRSC20086,3,,inactive
CG8142,DRSC26373,3,,inactive
CG31999,DRSC17131,12,,inactive
CG31999,DRSC17133,17,,inactive
Nab2 (Nuclear polyadenosine RNA-binding 2),DRSC14158,12,,inactive
Nab2 (Nuclear polyadenosine RNA-binding 2),DRSC27135,4,,inactive
CG9799,DRSC16567,8,,inactive
E23 (Early gene at 23),DRSC00593,4,,inactive
E23 (Early gene at 23),DRSC25491,2,,inactive
Zir (Zizimin-related),DRSC00307,4,,inactive
CG4631,DRSC02766,14,,inactive
CG4631,DRSC22194,11,,inactive
Taf13 (TBP-associated factor 13),DRSC02106,12,,inactive
Elys,DRSC19571,6,3,inactive
CG4000,DRSC15535,11,,inactive
CG4000,DRSC21547,8,,inactive
CG4000,DRSC25094,7,,inactive
CG8176,DRSC16394,4,,inactive
CG31835 + CG42585,DRSC01412,3,,inactive
CG13407,DRSC14583,13,,inactive
CG13407,DRSC25675,7,,inactive
CG4645,DRSC19907,6,,inactive
CG4645,DRSC24802,8,,inactive
CAH1 + Adat1,DRSC02009,3,,inactive
Qsox2 (Quiescin sulfhydryl oxidase 2),DRSC15287,4,,inactive
Qsox2 (Quiescin sulfhydryl oxidase 2),DRSC26634,3,,inactive
CG18473,DRSC16381,10,,inactive
ZnT33D (Zinc transporter 33D),DRSC02591,3,,inactive
Cyp12b2 (Cytochrome P450 12b2),DRSC07364,4,,inactive
dpr1 (defective proboscis extension response 1),DRSC06399,4,,inactive
CG1233,DRSC08269,4,,inactive
CG1233,DRSC26110,6,,inactive
frc + Coq4 + Gorab,DRSC29314,6,,inactive
CG31687 + Cdc23,DRSC23052,16,,inactive

A stretch taken from the entries so far, as a working copy:
gene,DRSC id,"mitotic cells, replicate 1","mitotic cells, replicate 2",outcome
CG11626,DRSC14336,12,,inactive
LKRSDH (Lysine ketoglutarate reductase/saccharopine dehydrogenase),DRSC03015,5,,inactive
LKRSDH (Lysine ketoglutarate reductase/saccharopine dehydrogenase),DRSC24572,4,,inactive
CG7997,DRSC07052,5,,inactive
CG7997,DRSC25706,4,,inactive
Surf6 (Surfeit 6),DRSC15588,7,,inactive
Surf6 (Surfeit 6),DRSC29437,6,,inactive
bib (big brain),DRSC03496,5,,inactive
bib (big brain),DRSC24888,7,,inactive
"SmydA-7 (SET and MYND domain containing, arthropod-specific, member 7)",DRSC07340,8,,inactive
Arp6 (Actin-related protein 6),DRSC19326,2,,inactive
Reepl1 (Receptor accessory protein like 1),DRSC19418,4,,inactive
Reepl1 (Receptor accessory protein like 1),DRSC26698,8,,inactive
Rab4 + CG42239,DRSC05667,8,,inactive
